## Screening data, single-dose tests

Values are the deposited “Percent Effect”, in %. The controls that fix the scale are not given in the record; negative values are as filed. The compounds are a random part of those screened. Two or more numbers in one place are separate tests of the same structure; such repeats can differ widely.

Mtb cholesterol medium: 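Whole-cell growth test on Mycobacterium tuberculosis, read after 4 days in a medium based on cholesterol and the lipid DPPC; the read-out is not stated. Tested at 50 µM. Higher reads as more growth inhibition (inferred: compounds with an IC50 in retests scored well above the rest). Size under these conditions: about 69,000 compounds, about 370 of them at 50% or above in at least one test.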
Mtb glucose medium: 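Growth of Mycobacterium tuberculosis over 3 days (7H9 medium with glucose and tyloxapol); the read-out is not stated. Compounds at 50 µM. The record gives no direction; compounds that gave an IC50 in retests scored well above the rest, so higher reads as more growth inhibition. Of about 69,000 compounds tested this way, about 760 (1.1%) reached 50% or more in at least one test.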

| SMILES | Mtb cholesterol medium | Mtb glucose medium |
|---|---|---|
| `Cc1noc(OCCOc2cccc(C#N)c2)n1` | -7.274% | -13.49% |
| `Cc1nc(N2CCOCC2)nc(C)c1NC(=O)COc1ccccc1` | 3.242% | -2.816% and 13.27% |
| `c1ccc(CNC[C@H]2COCc3nc4cccnc4n32)cc1` | -22.34% | -7.372% and -19.86% |
| `CN(CC1CCCCO1)C(=O)c1ccnc(OC2CCC2)c1` (stereo not given) | 8.075% | 1.582% |
| `CCN(C)CC(C)Cn1cnc(-c2ccccc2)c1-c1cncn1CC` (stereo not given) | 14.02% | -0.8669% and -19.05% |
| `CS(=O)(=O)NCC1(O)CCCN(C(=O)CCn2cc(Cl)cn2)CC1` (stereo not given) | -1.919% | 24.6% |
| `CN1CCN(Cc2ccc(F)cc2)Cc2cccnc21` | -21.28% | -9.333% |
| `[H][C@]12CCN(S(=O)(=O)c3ccc(F)cc3)[C@@]1([H])CC[C@@H](COCC)O2` | 9.938% | 7.215% |
| `NC(=O)Nc1cccc(CNC(=O)CCCc2ccccc2)c1` | -21.27% | -2.672% and -13.68% |
| `Cc1n[nH]c(NC(=O)c2ccc(COCC(F)(F)F)cc2)c1C` | -18.23% | -6.668% |
| `CC(C)c1cc(NC(=O)c2ccc([S+]([O-])C(C)C)cc2)[nH]n1` (stereo not given) | 1.285% | 7.744% |
| `CC(NC(=O)Nc1ccc(OC2CCCC2)cc1)c1nc[nH]n1` (stereo not given) | -5.977% | -2.67% and 13.1% |
| `CCOc1ccc(NC(=O)NCc2csc(NC)n2)cc1C` | 9.985% | 24.74% |
| `Cc1noc(COCC(=O)Nc2ccc(Br)c(C)n2)n1` | -23.89% | 41.42% |
| `c1cnn(C2CN(Cc3noc(C4CC4)n3)C2)c1` | -7.244% | 4.589% |
| `OCC1CCCN1c1cc(NCCc2ccsc2)ncn1` (stereo not given) | 21.63% | 15.13% |
| `CCOC[C@@H]1CCC[C@@]12CN(Cc1nccs1)CCO2` | -20.43% | -17.23% |
| `O=C(NCCNc1ncccn1)N(Cc1ccc(F)cc1F)C1CC1` | 2.797% | 8.097% |
| `O=C(O)C(F)(F)F.O=C(O)C(F)(F)F.O=C(O)C(F)(F)F.[H][C@@]12CN(Cc3ccco3)C[C@]1([H])[C@H](OC)CCN2Cc1ccccn1` | -8.187% | -28.74% |
| `Cc1cnc(NCC(C)(C)N2CCOCC2)nc1` | -9.679% | -22.69% and 3.968% |
| `CC(=O)NCCNC(=O)c1cccc(Cn2nc(C)cc2C)c1` | -2.862% | -34.47% |
| `COCCNC(=O)Nc1ccc(C(=O)N2CCSCC2)cc1C` | -6.114% | -13.81% |
| `CCc1cccc(OCC(=O)NC(C)c2nnc3n2CCC3)c1` (stereo not given) | -19.15% | -41.64% |
| `Cc1nn(C)c(C)c1NC(=O)CN1CCOC(Cn2cccn2)C1` (stereo not given) | 23.25% | 23.95% |
| `CC(C)c1sc(Cl)nc1C(=O)N1CCN(c2ccccc2)CC1` | 31.14% | -12.3% |
| `O=C(O)C(F)(F)F.O=C(O)C(F)(F)F.[H][C@@]12C[C@H](C(=O)NC3CC3)CN(Cc3cccnc3)[C@]1([H])CCO2` | -10.97% | -26.15% |
| `Cn1ncc2c(=O)[nH]c(N3CCN(C(=O)c4ccsc4)CC3)nc21` | -10.98% | -23.59% |
| `CCCNC(=O)c1ccc(NC(=O)NC(C)c2ccccn2)cc1` (stereo not given) | -19.41% | 12.58% and 12.84% |
| `CN(C1CCCN(c2ccccn2)C1)S(=O)(=O)N1CCOCC1` (stereo not given) | 10.92% and -4.84% | -15.52% |
| `CCC1CN(CCNS(C)(=O)=O)c2ccccc2O1` (stereo not given) | -8.509% | -7.477% and -4.051% |
| `CN(CCc1ccccn1)C(=O)C1Cc2ccccc2CN1C` (stereo not given) | 7.48% | 23.89% and -0.6335% |
| `O=c1n(CCSCc2ccccc2Br)nc2ccccn12` | 35.46% | 43.01% |
| `Cc1ncc(CN2CCOC(c3ccc(-c4cnn(C)c4)cn3)C2)s1` (stereo not given) | -21.78% | -21.31% |
| `CN(C)CCn1c2c(ccc1=O)CC(NC(=O)c1ccsc1)CC2.O=C(O)C(F)(F)F` (stereo not given) | -18.62% | -32.68% |
| `O=C(NCc1cccnc1)N1CCc2ncnc(NC3CC3)c2CC1.O=C(O)C(F)(F)F` | 16.04% | 0.777% |
| `Cc1cc(N(C)C)nc(C2CCCNC2)n1.Cl` (stereo not given) | -7.697% | -13.44% |
| `CC1CN(Cc2cccnc2)CCN1c1ccc2nncn2n1` (stereo not given) | -0.02156% | 17% |
| `CC(C)(C)c1cn(C2CCN(C(=O)c3cnccn3)CC2)nn1` | 11.42% | 2.702% |
| `COc1cc(C2SCC(=O)Nc3[nH]ncc32)cc2c1OCO2` (stereo not given) | 8.21% | 7.211% and 3.341% |
| `Cc1c(C(=O)NCCN2C(=O)CCC2=O)sc2ccc(F)cc12` | 6.605% | 16.14% |
| `c1c[nH]c2nc(C3CCCNC3)nc-2c1` (stereo not given) | -4.19% | 23.88% |
| `O=C(O)C(F)(F)F.[H][C@@]12CCN(C(=O)c3cscn3)[C@@]1([H])CCN2C1CCOCC1` | 0.3774% | 29.64% |
| `Cc1ncccc1C(=O)NC1CC(=O)N(CC(F)(F)F)C1` (stereo not given) | -26.57% | -77.77% and 6.778% |
| `Cn1ccc(CN2CCC(Cc3ccccc3)CC2)cc1=O` | -12.36% | -8.878% |
| `CC(C)C(=O)N(C)Cc1nc(N2CCCC2)ncc1-c1ccncc1.Cl` | 1.023% and -5.931% | 9.123% |
| `O=C(COc1coc(CN2CCCC2)cc1=O)NCc1ccccc1Cl` | 1.216% | 4.556% |
| `COc1cc(C)cc(C(C(=O)O)N(C)CCN2CCCC2)c1OC` (stereo not given) | 16.89% | -14.17% |
| `COc1c(CNCc2ccc(N3CCOCC3)cc2)c(C)nn1C` | -8.947% | -6.076% |
| `CC(c1nc(C2CC2)no1)N1CCN(Cc2nnc(C3CC3)o2)CC1` (stereo not given) | -16.41% | -19.3% |
| `O=C(COc1ccc2c(c1)CCC2)N1CCOCC1c1ncon1` (stereo not given) | -2.384% | 17.85% |
| `O=C(N1CCCC1)N1CCC2(CCN(Cc3ccccn3)C2=O)C1.O=C(O)C(F)(F)F` (stereo not given) | -7.012% | -14.24% |
| `CCc1nc(CN2CCCC(Nc3ncnc4ccsc34)C2)no1` (stereo not given) | -2.492% | -7.755% |
| `COc1cc(CNc2nc(C3CC3)no2)cc(OC)c1OC` | 4.124% and -6.754% | 20.34% |
| `Cc1nn(CN(Cc2ccsc2)C2CC2)c(=O)c2noc(C)c12` | 19.14% | 1.344% |
| `Nc1cccc(-c2cccc3ccnn23)n1` | -16.54% | 19.75% |
| `COCCOc1ccc(CNC2CCc3ncnn3C2)cc1OC` (stereo not given) | 0.9125% | -0.000282% |
| `O=C(NCC1CC1)Nc1cccc(N2CCN(CC3CC3)CC2)c1` | -4.522% | 22.95% |
| `Cc1ccc(N(CCC#N)C(=O)CN2CCCC2c2ccsc2)cc1` (stereo not given) | 13.23% | 36.15% |
| `O=C(O)C(F)(F)F.[H][C@@]12COC[C@]1(CNS(C)(=O)=O)CN(Cc1ccc3c(c1)OCO3)C2` | -7.057% | -2.369% |
| `Cc1ccc(S(=O)(=O)N2CCC(Cn3cc(C(C)(C)N)nn3)CC2)s1` | 10.77% | 20.46% |
| `O=C(O)C(F)(F)F.O=C(O)C(F)(F)F.[H][C@@]12COC[C@]1(CN(C)C)CN(C(=O)c1cccnc1OC)C2` | -7.238% | -3.055% and -21.18% |
| `CC1CCCCN1C(=O)CCc1nnc(-c2ccccc2)o1` (stereo not given) | 12.23% | 16.33% |
| `Cc1c(Cl)c(C(=O)N2CC[C@H](N3CCOCC3)[C@H](CCCO)C2)nn1C` | 2.674% | 7.815% and -3.619% |
| `CC(C)C1CN(C(=O)c2ccn(C)c(=O)c2)c2ccccc2N1` (stereo not given) | -4.06% | -12.18% |
| `CCSc1ccc(C(=O)N2CCC3(CCC(=O)N(C)C3)CC2)s1` | 7.797% | 3.604% and 2.614% |
| `CCc1cc(CN(Cc2cccnc2)C2CN3CCC2CC3)on1` (stereo not given) | -4.489% | 0.2945% |
| `Cc1nnc(NCCC(=O)N(C)Cc2ccccc2)c(C#N)c1C` | 2.999% | -5.601% |
| `CCN1CCCc2cc(-c3cncn3C(C)CN3CCOCC3)ccc21.Cl` (stereo not given) | 30.74% | 23.08% |
| `CC1CN(C(=O)c2cc[nH]c(=O)c2)c2ccccc21` (stereo not given) | 6.732% | 20.61% and 5.085% |
| `CC[C@H]1N(Cc2ccc(OC)cc2)CCC[C@]12CCC(=O)N2C` | -16.29% and -3.989% | -8.81% |
| `CC(NC(=O)NCCCc1n[nH]c(N)c1C#N)c1ccc(Cl)cc1` (stereo not given) | -14.62% | -3.2% |
| `CCn1ncc2c1CCCC2NCc1cccc2c1OCO2` (stereo not given) | -24.88% | -36.88% |
| `O=C(Nc1ccc(F)cc1)N1CCC2(CCC(=O)N(C3CC3)C2)CC1` | -1.039% | 8.92% |
| `CC(C)c1cc(C(=O)N2CCCC(Cn3cc(CO)nn3)C2)on1` (stereo not given) | 9.545% | -16.33% |
| `CS(=O)(=O)c1ccc(CNC(=O)NCC2CCOC2)cc1` (stereo not given) | 18.09% | 18.91% |

Once more, the final 6:

* CC[C@H]1N(Cc2ccc(OC)cc2)CCC[C@]12CCC(=O)N2C : Mtb cholesterol medium: -16.29% and -3.989%; Mtb glucose medium: -8.81%
* CC(NC(=O)NCCCc1n[nH]c(N)c1C#N)c1ccc(Cl)cc1 (stereo not given) : Mtb cholesterol medium: -14.62%; Mtb glucose medium: -3.2%
* CCn1ncc2c1CCCC2NCc1cccc2c1OCO2 (stereo not given) : Mtb cholesterol medium: -24.88%; Mtb glucose medium: -36.88%
* O=C(Nc1ccc(F)cc1)N1CCC2(CCC(=O)N(C3CC3)C2)CC1 : Mtb cholesterol medium: -1.039%; Mtb glucose medium: 8.92%
* CC(C)c1cc(C(=O)N2CCCC(Cn3cc(CO)nn3)C2)on1 (stereo not given) : Mtb cholesterol medium: 9.545%; Mtb glucose medium: -16.33%
* CS(=O)(=O)c1ccc(CNC(=O)NCC2CCOC2)cc1 (stereo not given) : Mtb cholesterol medium: 18.09%; Mtb glucose medium: 18.91%

Measurements from “University of Dundee, Small-Polar-MMV Screening Library” (2021), ChEMBL document CHEMBL3988442.